The target in this assay is NiV-G-HA (Nipah virus) (UniProt Q9IH62). Nature of the assay: co-IP.

The chains behind the UniProt entries cited, without tags or fusion partners. Where a name states a change or a piece, a line headed by the entry shows the natural chain unless it says otherwise.
UniProt Q9IH62: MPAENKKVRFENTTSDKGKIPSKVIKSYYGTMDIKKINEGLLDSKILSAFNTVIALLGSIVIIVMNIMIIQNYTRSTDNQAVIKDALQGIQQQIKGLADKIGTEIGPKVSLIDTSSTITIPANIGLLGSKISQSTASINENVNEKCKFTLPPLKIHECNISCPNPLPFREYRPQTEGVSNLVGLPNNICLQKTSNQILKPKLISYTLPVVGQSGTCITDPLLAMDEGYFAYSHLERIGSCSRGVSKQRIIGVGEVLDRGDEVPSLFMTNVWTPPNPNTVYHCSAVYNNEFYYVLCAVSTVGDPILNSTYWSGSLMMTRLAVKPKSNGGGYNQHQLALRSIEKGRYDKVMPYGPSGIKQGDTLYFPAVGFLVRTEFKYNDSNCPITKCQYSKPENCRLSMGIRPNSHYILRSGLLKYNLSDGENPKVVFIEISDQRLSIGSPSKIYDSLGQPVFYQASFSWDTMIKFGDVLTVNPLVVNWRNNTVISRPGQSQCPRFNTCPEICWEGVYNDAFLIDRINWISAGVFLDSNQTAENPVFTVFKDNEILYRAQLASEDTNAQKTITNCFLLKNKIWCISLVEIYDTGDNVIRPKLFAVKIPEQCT
UniProt Q9IH63: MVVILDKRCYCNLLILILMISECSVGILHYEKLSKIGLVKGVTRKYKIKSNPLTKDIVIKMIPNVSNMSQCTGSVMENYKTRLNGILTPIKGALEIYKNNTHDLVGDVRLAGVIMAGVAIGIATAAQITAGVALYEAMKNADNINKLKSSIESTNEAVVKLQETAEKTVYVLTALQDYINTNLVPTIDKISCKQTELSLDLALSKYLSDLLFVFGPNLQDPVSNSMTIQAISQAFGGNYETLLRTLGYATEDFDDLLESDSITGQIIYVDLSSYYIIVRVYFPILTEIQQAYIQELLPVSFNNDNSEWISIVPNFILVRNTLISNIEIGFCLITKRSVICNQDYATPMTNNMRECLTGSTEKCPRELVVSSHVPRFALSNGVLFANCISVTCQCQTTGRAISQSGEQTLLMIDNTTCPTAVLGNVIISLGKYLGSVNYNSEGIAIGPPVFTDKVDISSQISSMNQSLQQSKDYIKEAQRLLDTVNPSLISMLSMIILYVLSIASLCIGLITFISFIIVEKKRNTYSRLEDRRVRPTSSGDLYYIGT

Results are given in words; binding and its absence hold for the method and conditions named. Binding seen in cells or lysates may run through a third protein. Some binding calls cover weakened binding; strength is not graded here.

For the substance “NiV-F-GFP, cleaved F1 (fusion-active) form (from UniProt Q9IH63)”, the binding entry is “binds”.

(Values after PMC4022726.)
